Consider 1 substance from PMC12407369.

By UniProt entry, the sequences of proteins in these tests, tags left out. Where a name states a change or a piece, a line headed by the entry shows the natural chain unless it says otherwise.
UniProt P11388: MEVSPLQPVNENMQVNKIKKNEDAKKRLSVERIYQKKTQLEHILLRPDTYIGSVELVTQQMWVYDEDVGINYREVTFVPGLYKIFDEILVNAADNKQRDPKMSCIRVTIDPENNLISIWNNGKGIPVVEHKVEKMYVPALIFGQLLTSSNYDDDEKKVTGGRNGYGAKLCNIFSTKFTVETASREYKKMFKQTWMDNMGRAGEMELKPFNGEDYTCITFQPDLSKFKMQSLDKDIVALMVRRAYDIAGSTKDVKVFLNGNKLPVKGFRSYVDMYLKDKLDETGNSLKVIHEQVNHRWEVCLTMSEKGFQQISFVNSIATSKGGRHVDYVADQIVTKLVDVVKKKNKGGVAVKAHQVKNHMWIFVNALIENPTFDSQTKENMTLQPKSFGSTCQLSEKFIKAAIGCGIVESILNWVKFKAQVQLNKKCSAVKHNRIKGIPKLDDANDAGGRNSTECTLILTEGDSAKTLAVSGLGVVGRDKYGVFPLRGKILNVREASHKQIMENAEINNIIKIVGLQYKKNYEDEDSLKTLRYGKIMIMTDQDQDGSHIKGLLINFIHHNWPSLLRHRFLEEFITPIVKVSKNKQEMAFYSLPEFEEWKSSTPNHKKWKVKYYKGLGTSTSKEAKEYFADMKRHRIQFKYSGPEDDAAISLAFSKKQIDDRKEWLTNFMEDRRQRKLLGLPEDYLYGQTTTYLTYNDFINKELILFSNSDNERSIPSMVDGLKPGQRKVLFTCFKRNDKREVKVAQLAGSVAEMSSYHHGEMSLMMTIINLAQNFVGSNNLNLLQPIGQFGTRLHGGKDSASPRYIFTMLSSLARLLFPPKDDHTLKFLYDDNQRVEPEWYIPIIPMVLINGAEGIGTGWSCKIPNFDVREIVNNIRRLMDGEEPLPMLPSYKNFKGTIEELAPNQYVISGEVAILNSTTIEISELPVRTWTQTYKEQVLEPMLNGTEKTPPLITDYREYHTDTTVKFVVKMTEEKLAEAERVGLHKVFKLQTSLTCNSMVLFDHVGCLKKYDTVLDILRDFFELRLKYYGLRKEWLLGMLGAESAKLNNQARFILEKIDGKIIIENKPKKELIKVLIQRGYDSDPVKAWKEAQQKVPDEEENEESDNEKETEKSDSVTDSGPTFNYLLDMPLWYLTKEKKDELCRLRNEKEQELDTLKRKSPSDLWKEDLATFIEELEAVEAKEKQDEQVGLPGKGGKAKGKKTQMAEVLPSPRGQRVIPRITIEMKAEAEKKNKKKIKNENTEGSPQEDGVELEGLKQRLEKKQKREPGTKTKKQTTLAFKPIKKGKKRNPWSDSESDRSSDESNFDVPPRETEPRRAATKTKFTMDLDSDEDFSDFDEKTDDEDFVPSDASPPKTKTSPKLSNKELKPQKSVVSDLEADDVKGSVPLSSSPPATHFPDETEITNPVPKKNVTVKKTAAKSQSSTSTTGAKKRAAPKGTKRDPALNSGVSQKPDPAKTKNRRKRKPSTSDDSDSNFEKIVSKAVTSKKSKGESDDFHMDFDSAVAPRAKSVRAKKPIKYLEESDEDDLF
UniProt O00762: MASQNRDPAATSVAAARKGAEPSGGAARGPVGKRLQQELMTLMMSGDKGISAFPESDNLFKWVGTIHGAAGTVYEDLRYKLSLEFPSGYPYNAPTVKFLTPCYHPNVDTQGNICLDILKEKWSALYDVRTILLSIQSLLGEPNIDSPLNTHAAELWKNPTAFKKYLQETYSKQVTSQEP

Results are given in words; binding and its absence hold for the method and conditions named. Binding seen in cells or lysates may run through a third protein. Some results given as binding are weak or reduced against the parent protein; the word gives no strength.

This test deals with topoisomerase II-alpha (TOP2A) (human (endogenous in MDA-MB-231 and T47D)) (UniProt P11388). Put plainly: co-IP; endogenous proteins in MDA-MB-231 and T47D cells; which of the two was precipitated is not told.

For the substance “Ubiquitin-conjugating enzyme 2C (UBE2C) (from UniProt O00762 1-179)”, the binding entry was “binds”.
